# Data as given in patent US20250026805A1 (DUCENTIS BIOTHERAPEUTICS, published 2025).
# Results are given in words; binding and its absence hold for the method and conditions named. Some binding calls cover weakened binding; strength is not graded here. Where a sequence is shown, tags or fusion partners need not be part of it.
# T1: Recombinant Human CD200R, His tagged (human) (UniProt Q8TD46)
# T1 sequence (looked up): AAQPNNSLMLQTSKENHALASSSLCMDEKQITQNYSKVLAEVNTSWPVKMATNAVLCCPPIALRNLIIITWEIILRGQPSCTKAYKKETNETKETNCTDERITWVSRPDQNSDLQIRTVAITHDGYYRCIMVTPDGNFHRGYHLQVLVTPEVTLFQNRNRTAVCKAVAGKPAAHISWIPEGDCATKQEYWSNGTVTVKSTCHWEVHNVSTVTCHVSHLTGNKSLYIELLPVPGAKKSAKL
# Target: T1, Recombinant Human CD200R, His tagged (human)
# Assay: SPR (Biacore T200)
row,Binder,binding
1,"DS-161 mutant CD200-Fc fusion protein (K130F, IgG2 Fc) (Fc fusion, Purified as the dimeric form) QVQVVTQDEREQLYTPASLKCSLQNAQEALIVTWQKKKAVSPENMVTFSENHGVVIQPAYKDKINITQLGLQNSTITFWNITLEDEGCYMCLFNTFGFGFISGTACLTVYVQPIVSLHYKFSEDHLNITCSATARPAPMVFWKVPRSGIENSTVTLSHPNGTTSVTSILHIKDPKNQVGKEVICQVLHLGTVTDFKQTVNKGERKCCVECPPCPAPPVAGPSVFLFPPKPKDTLMISRTPEVTCVVVDVSHEDPEVQFNWYVDGVEVHNAKTKPREEQFNSTFRVVSVLTVVHQDWLNGKEYKCKVSNKGLPAPIEKTISKTKGQPREPQVYTLPPSREEMTKNQVSLTCLVKGFYPSDISVEWESNGQPENNYKTTPPMLDSDGSFFLYSKLTVDKSRWQQGNVFSCSVMHEALHNHYTQKSLSLSPGK",binds
2,"DS-162 mutant CD200-Fc fusion protein (I131F, IgG2 Fc) (Fc fusion, Purified as the dimeric form) QVQVVTQDEREQLYTPASLKCSLQNAQEALIVTWQKKKAVSPENMVTFSENHGVVIQPAYKDKINITQLGLQNSTITFWNITLEDEGCYMCLFNTFGFGKFSGTACLTVYVQPIVSLHYKFSEDHLNITCSATARPAPMVFWKVPRSGIENSTVTLSHPNGTTSVTSILHIKDPKNQVGKEVICQVLHLGTVTDFKQTVNKGERKCCVECPPCPAPPVAGPSVFLFPPKPKDTLMISRTPEVTCVVVDVSHEDPEVQFNWYVDGVEVHNAKTKPREEQFNSTFRVVSVLTVVHQDWLNGKEYKCKVSNKGLPAPIEKTISKTKGQPREPQVYTLPPSREEMTKNQVSLTCLVKGFYPSDISVEWESNGQPENNYKTTPPMLDSDGSFFLYSKLTVDKSRWQQGNVFSCSVMHEALHNHYTQKSLSLSPGK",binds
